Measurements: the supplement of paper PMC3334620
Over roughly 33,000 sequences, “E-score (-0.5 to 0.5)” has its median near -0.0059; the highest 2% begin near 0.26. The list shows a part of the results.

Each sequence was assayed against T1, Cin5 (UniProt P40917) (assay: PBM E-score (8-mer binding enrichment) (E-score (-0.5 to 0.5)); higher = stronger / more preferred TF binding). Settings: protein concentration: 100 nM; construct: GST-full length.
T1 sequence: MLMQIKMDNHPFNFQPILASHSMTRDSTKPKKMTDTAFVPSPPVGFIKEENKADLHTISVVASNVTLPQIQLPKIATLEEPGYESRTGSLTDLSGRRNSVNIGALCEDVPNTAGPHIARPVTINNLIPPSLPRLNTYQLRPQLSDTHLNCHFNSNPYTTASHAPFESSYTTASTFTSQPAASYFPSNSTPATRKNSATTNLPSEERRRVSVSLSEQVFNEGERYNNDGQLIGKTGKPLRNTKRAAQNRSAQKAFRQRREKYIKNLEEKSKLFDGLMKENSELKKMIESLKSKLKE
Protocol: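 Universal 'all 10-mer' protein binding microarrays (Agilent AMADID 015681) probed with GST-tagged S. cerevisiae TFs (full-length or DBD) made by in vitro transcription/translation (PURExpress), about 100-200 nM. Bound TF was detected with fluorescent anti-GST. Each ungapped 8-mer (which stands for itself and its reverse complement) is scored by the PBM enrichment score (E-score), a modified Wilcoxon-Mann-Whitney statistic from -0.5 to +0.5, computed with the Universal PBM Analysis Suite. Scale: above 0.35 generally sequence-specific binding.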
In the case of GCAACAAA, the “PBM E-score” value was 0.214.
For CCGACAGA, the “PBM E-score” value was 0.0622.
In the case of CGCCTCTA, the “PBM E-score” value was -0.0444.
With CGGATTCC the “PBM E-score” value was 0.0891.
AGGTAACC was tested, and the “PBM E-score” value was -0.051.
ACACCAAA was tested, and the “PBM E-score” value was 0.14.
In the case of GCACGTGC, the “PBM E-score” value was 0.0222.
For GCTGGAAC, the “PBM E-score” value was -0.108.
For CGTCACGC, the “PBM E-score” value was -0.0596.
AAAACAAA was tested, and the “PBM E-score” value was 0.0866.
GCATTTAC was tested, and the “PBM E-score” value was 0.0129.
In the case of AATAGTTG, the “PBM E-score” value was 0.238.
For CCCGATCC, the “PBM E-score” value was -0.123.
In the case of CAGAGGTC, the “PBM E-score” value was -0.0986.
GAGGGCGA was tested, and the “PBM E-score” value was -0.309.
For CTGATTCC, the “PBM E-score” value was 0.0671.
In the case of AAGCACGA, the “PBM E-score” value was 0.126.
In the case of CACGCCAC, the “PBM E-score” value was -0.104.
In the case of AGCCCACC, the “PBM E-score” value was -0.157.
For GGGAAAAA, the “PBM E-score” value was 0.0697.
ACATTGAT was tested, and the “PBM E-score” value was 0.152.
With AGTTGCCC the “PBM E-score” value was 0.0814.
AAGGCAAG was tested, and the “PBM E-score” value was -0.12.
With AGGAAGTC the “PBM E-score” value was -0.166.
For AAGTCAGT, the “PBM E-score” value was 0.128.
For AGTAGATA, the “PBM E-score” value was 0.306.
AGTAATGA was tested, and the “PBM E-score” value was 0.13.
In the case of CGCGCCTC, the “PBM E-score” value was -0.00598.
For GCCCGACC, the “PBM E-score” value was -0.194.
With CGAGGAGA the “PBM E-score” value was -0.233.
For ATCTGTGC, the “PBM E-score” value was 0.0862.
With ACAGCGCG the “PBM E-score” value was -0.0181.
In the case of GATCATGC, the “PBM E-score” value was -0.102.
In the case of ACCTCGAC, the “PBM E-score” value was -0.133.
For CTAGGGTA, the “PBM E-score” value was -0.193.
GTTCCAAA was tested, and the “PBM E-score” value was 0.0443.
In the case of ATTCTATC, the “PBM E-score” value was 0.14.
In the case of AGGACACC, the “PBM E-score” value was -0.0654.
AATAGCAG was tested, and the “PBM E-score” value was -0.0538.
AATCGGTG was tested, and the “PBM E-score” value was -0.0213.
GGCATATA was tested, and the “PBM E-score” value was 0.253.
For ACCGCTGA, the “PBM E-score” value was 0.0928.
AATAAACA was tested, and the “PBM E-score” value was 0.216.
AGGTGGGA was tested, and the “PBM E-score” value was -0.159.
In the case of AATGGGAG, the “PBM E-score” value was -0.0691.
With ACGTTGTG the “PBM E-score” value was -0.0946.
For CGGCGACA, the “PBM E-score” value was -0.0141.
In the case of ACGTCTCC, the “PBM E-score” value was 0.0534.
For GAGAAATC, the “PBM E-score” value was 0.103.
GACTCCGA was tested, and the “PBM E-score” value was -0.0498.
For CCAAACGC, the “PBM E-score” value was -0.0595.
For TGGGTAAA, the “PBM E-score” value was -0.178.
For TAAAAACA, the “PBM E-score” value was 0.174.
With GCACAGCC the “PBM E-score” value was -0.159.
With ACCCGATG the “PBM E-score” value was 0.153.
For GCCGACAA, the “PBM E-score” value was -0.0412.
ATCTTTGA was tested, and the “PBM E-score” value was 0.0934.
In the case of CTTCAGCA, the “PBM E-score” value was -0.0197.
GTCTTGAA was tested, and the “PBM E-score” value was 0.0184.
AAGACTAG was tested, and the “PBM E-score” value was -0.305.
AAGCCCGT was tested, and the “PBM E-score” value was -0.238.
ACACCAGA was tested, and the “PBM E-score” value was 0.0596.
For AAACGTTA, the “PBM E-score” value was -0.00091.
CCAAGGGC was tested, and the “PBM E-score” value was -0.292.
In the case of CGGAACCG, the “PBM E-score” value was 0.00785.
CGTAACCA was tested, and the “PBM E-score” value was 0.192.
For CCTTCCCC, the “PBM E-score” value was -0.204.
For CGCATGTC, the “PBM E-score” value was -0.0838.
GATACATA was tested, and the “PBM E-score” value was 0.235.
In the case of AATGGGAT, the “PBM E-score” value was -0.0064.
In the case of CACGAGAG, the “PBM E-score” value was -0.0839.
GACCTGAA was tested, and the “PBM E-score” value was 0.0203.
In the case of CTAATCTC, the “PBM E-score” value was 0.0871.
For TCAGCTAA, the “PBM E-score” value was 0.0484.
With AGAACAAA the “PBM E-score” value was 0.194.
CGCGCGAG was tested, and the “PBM E-score” value was 0.108.
In the case of CAGCTAGC, the “PBM E-score” value was -0.0954.
In the case of AAAGTGGG, the “PBM E-score” value was 0.155.
In the case of AATTATAT, the “PBM E-score” value was 0.229.
With AATGGACT the “PBM E-score” value was -0.0199.
With CTGACTGA the “PBM E-score” value was -0.0768.
In the case of CGATCTCC, the “PBM E-score” value was -0.109.
In the case of TTTAGAAA, the “PBM E-score” value was -0.0273.
For CGGTTTAC, the “PBM E-score” value was -0.198.
With GCTCTATA the “PBM E-score” value was -0.0373.
For AGTCCTGA, the “PBM E-score” value was -0.087.
For GTTAGTCA, the “PBM E-score” value was 0.0867.
For ACTGCACC, the “PBM E-score” value was -0.0266.
For CACGCAAG, the “PBM E-score” value was 0.0305.
With CGGGGACA the “PBM E-score” value was -0.102.
For ATGATGGG, the “PBM E-score” value was 0.0496.
ACGAGACG was tested, and the “PBM E-score” value was -0.0766.
GTTTGCCA was tested, and the “PBM E-score” value was 0.0942.
For AAACCCAT, the “PBM E-score” value was 0.244.
With AGTGCCGG the “PBM E-score” value was -0.0939.
In the case of AACCGTGT, the “PBM E-score” value was 0.116.
For ATAGCAAG, the “PBM E-score” value was 0.216.
CACTAAGC was tested, and the “PBM E-score” value was 0.0901.
In the case of AGCTTGAT, the “PBM E-score” value was -0.00094.
With GCGTCAAC the “PBM E-score” value was -0.147.
For CTTAAGAC, the “PBM E-score” value was -0.122.
ATGCGCTA was tested, and the “PBM E-score” value was 0.0341.
In the case of CCGCGTAA, the “PBM E-score” value was -0.051.
For CATTGAGC, the “PBM E-score” value was -0.135.
For TAGTCAAA, the “PBM E-score” value was 0.0952.
In the case of TTACGGAA, the “PBM E-score” value was 0.253.
CGATCTTA was tested, and the “PBM E-score” value was 0.0787.
ACGGTCCT was tested, and the “PBM E-score” value was -0.255.
CGAAGAGC was tested, and the “PBM E-score” value was -0.0553.
For CAACTCAA, the “PBM E-score” value was 0.192.
In the case of AACGATAT, the “PBM E-score” value was 0.285.
CGATGCGC was tested, and the “PBM E-score” value was 0.0485.
For CGTAAAAG, the “PBM E-score” value was 0.0338.
In the case of CTGAGGCA, the “PBM E-score” value was -0.221.
With AAAATCGA the “PBM E-score” value was 0.0621.
GCGTCTGA was tested, and the “PBM E-score” value was 0.0418.
AAAATCCG was tested, and the “PBM E-score” value was -0.0456.
For ATACTATA, the “PBM E-score” value was 0.217.
ACTGTCCA was tested, and the “PBM E-score” value was -0.177.
For CCAAGACG, the “PBM E-score” value was -0.123.
For CTTGTCGA, the “PBM E-score” value was -0.187.
With AGCTGGTC the “PBM E-score” value was -0.217.
With AACCTATA the “PBM E-score” value was 0.135.
For CGTCTAAG, the “PBM E-score” value was 0.0276.
For GTTGTCTA, the “PBM E-score” value was 0.114.
In the case of ATCGACAG, the “PBM E-score” value was 0.0639.
CACACAGA was tested, and the “PBM E-score” value was 0.0436.
In the case of AGCCTAAG, the “PBM E-score” value was -0.258.
With TATCGATA the “PBM E-score” value was 0.0449.
In the case of ACCTGGAT, the “PBM E-score” value was -0.172.
GGAGTAGA was tested, and the “PBM E-score” value was 0.0669.
ACGCGTAT was tested, and the “PBM E-score” value was 0.184.
AGCCCGAC was tested, and the “PBM E-score” value was -0.197.
For ACCTATCT, the “PBM E-score” value was 0.121.
With ACTGTTTC the “PBM E-score” value was -0.0226.
For GACCCCTA, the “PBM E-score” value was -0.163.
For GATCGAGC, the “PBM E-score” value was 0.019.
With CCCACGTC the “PBM E-score” value was -0.0571.
In the case of CTTGCACA, the “PBM E-score” value was -0.0377.
With GACAAAGC the “PBM E-score” value was -0.031.
For AATGAGGG, the “PBM E-score” value was 0.0243.
For CGCGGCAG, the “PBM E-score” value was 0.0728.
With GCCAGTCC the “PBM E-score” value was -0.247.
For AGAGCCAT, the “PBM E-score” value was -0.119.
CTGCACTC was tested, and the “PBM E-score” value was -0.0714.
In the case of AGACCCCG, the “PBM E-score” value was -0.00663.
CAGTTCCG was tested, and the “PBM E-score” value was 0.0784.
For ATAAGCGC, the “PBM E-score” value was 0.188.
ATGAGTCC was tested, and the “PBM E-score” value was 0.00652.
In the case of AAATTTGG, the “PBM E-score” value was 0.085.
CTAGTGGC was tested, and the “PBM E-score” value was -0.0739.
With AACAGGTA the “PBM E-score” value was 0.0809.
AATAGGCC was tested, and the “PBM E-score” value was -0.178.
For AGACAAAC, the “PBM E-score” value was -0.0527.
With CGTCGAAC the “PBM E-score” value was -0.243.
CTTTAATA was tested, and the “PBM E-score” value was 0.122.
CTACCGAG was tested, and the “PBM E-score” value was -0.178.
With ACATGCAG the “PBM E-score” value was -0.0421.
For AAGCGTGA, the “PBM E-score” value was 0.152.
CCGGATGA was tested, and the “PBM E-score” value was -0.0838.
AGCAAGCC was tested, and the “PBM E-score” value was -0.144.
In the case of CCTCGACC, the “PBM E-score” value was -0.17.
CTCAGCGA was tested, and the “PBM E-score” value was 0.0166.
With AACAAACT the “PBM E-score” value was 0.0651.
With CCACCCGG the “PBM E-score” value was -0.147.
In the case of ACTCAAAG, the “PBM E-score” value was -0.036.
For CAAACGAA, the “PBM E-score” value was -0.0117.
For ATGAGGTC, the “PBM E-score” value was -0.0958.
For AGTGGTCA, the “PBM E-score” value was -0.0431.
In the case of ACTTCCGG, the “PBM E-score” value was 0.0119.
For CAGCGGTC, the “PBM E-score” value was -0.142.
In the case of ACCTGAAA, the “PBM E-score” value was -0.0383.
